Earlier results as cited in patent US11311544B2, “Treatment of congenital adrenal hyperplasia” (Neurocrine Biosciences, Inc., priority 2014, dated 2022).
Some results were stated once for a whole list of compounds, not compound by compound.

System: plasma ACTH in adrenalectomized (ADX) rats
Conditions: 10 mg/kg, Fleck et al.; cited from earlier work

CCCN(CCC)c1cc(C)nc2c(-c3cnc(N(C)C)cc3C)c(C)nn12 [NBI-30775, 5-[7-(dipropylamino)-2,5-dimethylpyrazolo[1,5-a]pyrimidin-3-yl]-N,N,4-trimethylpyridin-2-amine]
duration of sustained ACTH response: 4 to 6 h

CCCC(CCC)N1CCn2nc(-c3ccc(Cl)cc3Cl)c3nc(C)cc1c32 [NBI-34041, 3-(2,4-dichlorophenyl)-9-(heptan-4-yl)-6-methyl-1,2,5,9-tetraazatricyclo[6.3.1.0^4,12] dodeca-2,4(12),5,7-tetraene]
duration of sustained ACTH response: 4 to 6 h
